According to PubChem BioAssay AID2685 (National Center for Advancing Translational Sciences (NCATS), 2010):
This is one part of the list. The main result of the screen is listed elsewhere. These columns were measured beside it and carry no call. Most of these compounds were active or inconclusive in the main read-out, so they are no random draw. Words in brackets tell the shape of the fitted curve; partial curves, single points and poor fits give uncertain potencies.

Test: qHTS Assay for Lipid Storage Modulators in Drosophila S3 Cells;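 for cell number change: cells counted by Cell Tracker Red CMTPX staining in the red channel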
Details: BODIPY lipid droplet fluorescence, 18-24 h; for cell number change: measured here: cell count max response, cells fed with added oleic acid
Outline: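 Drosophila S3 cells got compounds at several concentrations plus oleic acid (400 uM solution). Laser-scanning cytometry with 488 nm excitation read lipid droplets at 500-530 nm and cells at 575-640 nm. Percent activity was relative to 20 uM Triacsin C.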

[1] = measured here: lipid fluorescence (Fed channel) AC50, cells fed with added oleic acid
[2] = measured here: cell number channel AC50, cells fed with added oleic acid

Structure (SMILES)	AC50 [1]	cell number change	AC50 [2]
C/C(=N\Nc1nc(C)c(C)s1)c1ccc([N+](=O)[O-])cc1	0.731 µM [falling, single point]		
O=Nc1onc(-c2ccc([N+](=O)[O-])cc2)c1NO	29.1 µM [falling, single point]	-34.6%	2.06 µM [falling, full curve, poor fit]
C=CCn1c(O)c(N=Nc2nc3ccccc3c(=O)n2-c2ccccc2)c2ccccc21	20.6 µM [rising, partial curve]	34.9%	0.411 µM [rising, full curve, poor fit]
Cc1ccnc(NC(=O)Nc2cccc(F)c2)c1		-4.28%	
CCN1CCN(Cc2cc(=O)oc3ccc(Cl)cc23)CC1	0.206 µM [falling, full curve, poor fit]	-3.32%	
FC(F)(F)c1nc2ccccc2nc1N/N=C/c1ccc(Cl)cc1	14.6 µM [falling, partial curve]	-84.2%	14.6 µM [falling, partial curve]
Clc1ccc(OCCN2CCOCC2)cc1	6.51 µM [falling, single point]	-2.76%	
O=C(NCCN1C(=O)S/C(=C\c2cccnc2)C1=O)C1CC(=O)N(Cc2ccco2)C1 (stereo not drawn)			0.58 µM [rising, single point]
Cc1ccn2c(C=O)c(-c3ccc(F)cc3)c(C=O)c2c1	0.00517 µM [rising, full curve, poor fit]	21.4%	
CCS(=O)(=O)N1CCN(CC2CC3C=CC2C3)CC1 (stereo not drawn)	0.82 µM [falling, full curve]	33.8%	
Cc1cccc(N2C(=O)C(O)=C(C(=O)c3cccs3)C2c2ccc(F)cc2)n1 (stereo not drawn)	20.6 µM [falling, single point]	-33.7%	
c1ccc(-c2nc(NCc3cccnc3)c3oc4ccccc4c3n2)cc1	0.58 µM [rising, full curve]	6.96%	
O=C1c2cccc3c(O)ccc(c23)C(=O)N1c1ccc(Cl)cc1	6.51 µM [falling, full curve]	-91.8%	4.11 µM [falling, full curve]
N#CC1=C(N)C(C#N)(C#N)[C@H](c2c(F)cccc2F)[C@H]2CC3(CC=C12)OCCO3			1.3 µM [rising, partial curve]
CC(=O)Nc1ccc(N2CCC(C)CC2)c([N+](=O)[O-])c1	0.103 µM [falling, full curve]	-19.2%	
O=C(COc1ccccc1Cl)Nc1cc(NC(=O)COc2ccccc2Cl)cc(C(=O)O)c1	29.1 µM [rising, single point]	-11.3%	
O=C(Nc1ccccc1)N(CCN1CCOCC1)Cc1ccccc1F		154%	14.6 µM [rising, partial curve]
Cc1onc(-c2ccccc2)c1C(=O)Nc1ccc2c(c1)OCO2	0.92 µM [rising, single point]	-12.8%	
COC(=O)[C@H](CC(C)C)NC(=O)Nc1ccccc1F	4.11 µM [falling, single point]	-15.1%	
O=C(CCCn1ncn2c(cc3occc32)c1=O)NCc1ccccc1F	14.6 µM [falling, partial curve]	-29.5%	

Reformatted in CSV form: 3 of the compounds above.
Structure (SMILES),AC50 [1],cell number change,AC50 [2]
C/C(=N\Nc1nc(C)c(C)s1)c1ccc([N+](=O)[O-])cc1,"0.731 µM [falling, single point]",,
CCN1CCN(Cc2cc(=O)oc3ccc(Cl)cc23)CC1,"0.206 µM [falling, full curve, poor fit]",-3.32%,
Cc1cccc(N2C(=O)C(O)=C(C(=O)c3cccs3)C2c2ccc(F)cc2)n1 (stereo not drawn),"20.6 µM [falling, single point]",-33.7%,

(more compounds)

Structure (SMILES)	AC50 [1]	cell number change	AC50 [2]
CN1C(=O)c2ccc(C(=O)Nc3ccc4c(c3)OCO4)cc2C1=O	29.1 µM [falling, single point]	-7.28%	
Cc1cc(=O)oc2cc(OC(C)C)ccc12	0.231 µM [falling, full curve, poor fit]	8.25%	
O=C(C1CCC(CNc2c(N3CCCCC3)c(=O)c2=O)CC1)N1CCCC1 (stereo not drawn)	3.66 µM [falling, full curve]	-21.3%	
CC(Oc1ccc(F)cc1)C(=O)Nc1ccccc1C(=O)NC1CC1 (stereo not drawn)		67.1%	8.2 µM [rising, partial curve]
Cc1ccc(C(=O)N/C(=C/c2ccco2)C(=O)NCCCn2ccnc2)cc1	29.1 µM [rising, single point]	26.6%	
CCC[C@@H](CN[C@@H](CNC)C(C)C)NCCCCc1ccccc1	6.51 µM [rising, single point]	0.599%	
CNC(=S)Nc1cccc2[nH]ncc12		62.1%	
CC(C)C(NC(=O)CSCc1ccc([N+](=O)[O-])cc1)C(C)C	29.1 µM [rising, single point]	-11.9%	
Nc1c(C(=O)C2CC2)sc2nc(-c3cccs3)cc(C(F)(F)F)c12	7.31 µM [falling, partial curve]		1.3 µM [rising, partial curve]
CCc1noc(C)c1C(=O)NNC(=O)COc1ccc(Br)cc1	0.517 µM [falling, single point]		
Cc1cc2cc(CNC(=S)NC3CCCCC3)ccc2n1C	0.82 µM [rising, full curve, poor fit]	8.5%	
COc1ccccc1NC(=O)c1ccccc1S(=O)(=O)c1ccc([N+](=O)[O-])cc1		-15.8%	
Cc1ccc(-c2nc(SCC(=O)NCCN3C(=O)CSC3=O)[nH]c2-c2ccc(C)cc2)cc1	23.1 µM [falling, partial curve, poor fit]	-76.9%	25.9 µM [falling, partial curve]
CC(=O)Nc1cc(C(=O)NCc2ccco2)ccc1Sc1ccc(C)cc1	29.1 µM [rising, single point]	33%	29.1 µM [rising, single point]
CCCc1nnc(NC(=O)Cn2c(=O)oc3cc(Br)ccc32)s1		-5.48%	
CC(OC(=O)CSc1ccc([N+](=O)[O-])cc1)C(=O)NCc1ccccc1 (stereo not drawn)		-11.1%	
CCC(=O)Nc1c(C(=O)Nc2ccc3c(c2)OCCO3)oc2ccccc12	29.1 µM [falling, single point]	-32.2%	32.6 µM [falling, single point]
Cc1ccccc1C1CC(c2cccs2)Nc2nnnn21 (stereo not drawn)	7.31 µM [falling, partial curve, poor fit]	-13.5%	0.116 µM [falling, full curve, poor fit]
O=C(NCc1cccnc1)/C(=C/c1ccc(-c2ccc(Cl)cc2)o1)S(=O)(=O)c1ccccc1	23.1 µM [falling, single point]	-24.4%	
COc1cccc(CNCc2ccccn2)c1OC		-105%	32.6 µM [falling, partial curve]

Structure (SMILES)	AC50 [1]	cell number change	AC50 [2]
Cc1nc2ccccc2n1C(=O)N(C)C		-36%	32.6 µM [falling, single point]
Cc1ccc(OCCNC(=O)c2ccc3c(c2)OCO3)cc1	20.6 µM [rising, partial curve, poor fit]	40.1%	1.03 µM [rising, full curve, poor fit]
COc1cc(C2C(C#N)=C(N)Oc3c2ccc2ccccc32)ccc1OCC(=O)Nc1ccc(C)cc1 (stereo not drawn)		10.3%	
COc1ccc(CNC(=O)CN2C(=O)COc3ccc(S(=O)(=O)N4CCCCC4)cc32)cc1		18.3%	
[O-][N+]12CC[N+]([O-])(CC1)c1ccccc12	0.731 µM [falling, single point]	-27.7%	1.46 µM [falling, full curve, poor fit]
CCC1CCCCN1CCCNC(=O)C(C)n1nc(C)c2sc3ccccc3c2c1=O (stereo not drawn)	2.31 µM [rising, partial curve]		
CNC(=O)c1c(NC(=O)c2ccc3ncsc3c2)sc(C)c1C	0.461 µM [rising, partial curve]		0.206 µM [rising, full curve]
COc1ccc(C(C)(C)C)cc1S(=O)(=O)n1ccnc1C	25.1 µM [falling, partial curve]	12.7%	
O=C(CCNC(=O)c1ccc(Cl)cc1)NN1C(=O)NC2(CCCCC2)C1=O	0.164 µM [falling, full curve, poor fit]	1.24%	
O=c1oc2ccccc2cc1C1=Nn2c(nnc2-c2cccnc2)SC1		40.8%	11.6 µM [rising, partial curve]
O=c1n(Cc2ccccc2Cl)c2sc3c(c2c2ncnn12)CCCC3	1.3 µM [rising, partial curve]	8.57%	
Cc1cccc(N(CC(=O)NC2CCCC2)C(=O)CCC(=O)Nc2cc(C)on2)c1	0.651 µM [rising, partial curve, poor fit]	0.87%	
O=C(NCCc1ccccc1)c1ccc(-c2ccccc2C(F)(F)F)o1	14.6 µM [rising, partial curve]	40.4%	14.6 µM [rising, partial curve]
CC(=O)Nc1ccn(Cc2c(F)cccc2Cl)n1	25.9 µM [falling, single point]	-26.9%	
Cc1ccc(C)c(S(=O)(=O)N2CCN(C(=O)/C=C/c3ccco3)CC2)c1		-30.3%	0.0517 µM [falling, full curve, poor fit]
CCC1(CC)NC(=O)N(CC(=O)OC(C)C(=O)Nc2ccc(Cl)cn2)C1=O (stereo not drawn)		42.2%	
Cc1ccc(-n2nnnc2SCC(=O)N2CCCCC2)cc1	0.00461 µM [falling, full curve, poor fit]	71.2%	16.4 µM [rising, single point]
COc1ccc(/C(C)=N/NC(=O)c2ccncc2)cc1[N+](=O)[O-]	29.1 µM [rising, single point]	10.9%	
CCSc1cc(N2CCCC2)nc(-c2ccccc2Cl)n1		0.731%	
CN(C)CCCNC(=O)CCc1nc2ccccc2c(=O)[nH]1		119%	6.51 µM [falling, single point]
